In test [1] the target is T1, canine PD-L1 on canine tumor cell line Jones (canine) (UniProt E2RKZ5).
T1 sequence: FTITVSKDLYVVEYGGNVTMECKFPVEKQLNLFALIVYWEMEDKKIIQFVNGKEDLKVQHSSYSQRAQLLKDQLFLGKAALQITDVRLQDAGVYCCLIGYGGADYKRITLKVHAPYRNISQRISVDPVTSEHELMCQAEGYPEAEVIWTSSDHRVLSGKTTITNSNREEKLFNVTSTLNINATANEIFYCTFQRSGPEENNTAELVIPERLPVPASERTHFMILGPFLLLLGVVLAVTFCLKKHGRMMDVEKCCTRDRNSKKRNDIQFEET
Briefly: flow cytometry on canine tumor cells Jones (column 'Canine'). (In general: Flow cytometry measures light scatter and fluorescence of single cells or particles in a stream.)

Test [2] has as its target T1, canine PD-L1 on canine tumor cell line Jones (canine). The test is described as follows: flow cytometry on canine tumor cell line Jones.

These are yes or no findings as the source states them, for the method shown. Some results given as binding are weak or reduced against the parent protein; the word gives no strength.

B1: Shark VNAR A11 (VNAR)
VNAR: ARVDQTPRSVTKETGESLTINCVLRDTSYALGSTYWYRKKSGSTNEESISKGGRYVETVNSGSKSFSLRINDLTVEDSGTYRCKFKSNTEFLNPLTVSMSTIYGGGTVVTVN
notes: Shark VNAR single-domain antibody
As to B1, the binding entry in test [1] and in test [2] was “binds” throughout.

B2: Shark VNAR F5 (VNAR)
VNAR: ARVDQTPRSVTKETGESLTINCVLRDTNYALGSTYWYRKKLGSTNEESISKGGRYVETVNSGSKSFSLRINDLTVEDSGTYRCKNLGHPMYIAGAICRPLPIYGGGTVVTVN
notes: as for B1
With B2, the binding result in test [1] and in test [2] was “binds” throughout.

B3: Shark VNAR B2 (VNAR)
VNAR: ARVDQTPRSVTKETGESLTINCVLRDSSYALGSTYWYRKKSGSTNEESISKGGRYVETVNSGSKSFSLRINDLTVEDSGTYRCKYTSRLRREGPLSWDGNTVYGGGTVVTVN
notes: Shark VNAR single-domain antibody from the semi-synthetic 18AA CDR3 library; also called B2 nanobody; B2 clone
With B3, in test [2], the binding entry is listed as “binds”.
